Counter-ions that a name gives are not always drawn. Some well-known active drugs show little effect in this data set, so a weak value is uncertain.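 OVCAR3, described as chemosensitive, is one of three high-grade serous ovarian cancer lines that differ in chemosensitivity. Toxicity was scaled from DMSO vehicle wells to fully lysed wells; scores came from fitted multi-dose response curves, and the authors treated scores above 5 as indicating drug sensitivity.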
Tests used:
Test in all cases: drug sensitivity score (DSS2, cytotoxicity, CellTox Green); higher = more cytotoxic / more sensitive; extreme values may be limits of the assay
Conditions in all cases: 72 h; doses 0.5, 1, 5 µM
Kuramochi = test system: Kuramochi
OVCAR3 = test system: OVCAR3
OVCAR4 = test system: OVCAR4

SMILES | drug sensitivity score (Kuramochi) | drug sensitivity score (OVCAR3) | drug sensitivity score (OVCAR4)
C[C@@H]1CCN(C(=O)CC#N)C[C@@H]1N(C)c1ncnc2[nH]ccc12 [Tofacitinib] | 0 DSS | 0 DSS | 0 DSS
CCc1c2c(nc3ccc(OC(=O)N4CCC(N5CCCCC5)CC4)cc13)-c1cc3c(c(=O)n1C2)COC(=O)[C@]3(O)CC [Irinotecan (hydrochloride trihydrate)] | 0 DSS | 0 DSS | 0 DSS
CC(=O)CCCCn1c(=O)c2c(ncn2C)n(C)c1=O [Pentoxifylline] | 0 DSS | 0 DSS | 0 DSS
Cc1cc(C2CCCCC2)n(O)c(=O)c1 [Ciclopirox] | 0 DSS | 0 DSS | 0 DSS
CSc1ccc2c(c1)N(CCC1CCCCN1C)c1ccccc1S2 (configuration not stated) [Thioridazine (hydrochloride)] | 0 DSS | 0 DSS | 0 DSS
CC#CCn1c(N2CCC[C@@H](N)C2)nc2c1c(=O)n(Cc1nc(C)c3ccccc3n1)c(=O)n2C [Linagliptin] | 0 DSS | 0 DSS | 0 DSS
Nc1nc(=S)c2[nH]cnc2[nH]1 [6-Thioguanine] | 0 DSS | 0 DSS | 0 DSS
O=C(Nc1ccc([N+](=O)[O-])cc1Cl)c1cc(Cl)ccc1O [Niclosamide] | 0 DSS | 0 DSS | 0 DSS
Cc1cn(-c2cc(NC(=O)c3ccc(C)c(Nc4nccc(-c5cccnc5)n4)c3)cc(C(F)(F)F)c2)cn1 [Nilotinib (monohydrochloride monohydrate)] | 0 DSS | 0 DSS | 0 DSS
CN1[C@@H]2CC[C@H]1C[C@@H](OC(=O)C(CO)c1ccccc1)C2 (some centres not stated) [Atropine (sulfate monohydrate)] | 0 DSS | 0 DSS | 0 DSS
C[n+]1c2ccccc2nc2ccccc21 [Phenazine (methylsulfate)] | 0 DSS | 0 DSS | 0 DSS
CNC(=O)c1cc(Oc2ccc(NC(=O)Nc3ccc(Cl)c(C(F)(F)F)c3)c(F)c2)ccn1 [Regorafenib] | 0 DSS | 0 DSS | 1.7 DSS
CC(C)(C)c1nc(-c2cccc(NS(=O)(=O)c3c(F)cccc3F)c2F)c(-c2ccnc(N)n2)s1 [Dabrafenib (Mesylate)] | 0 DSS | 0 DSS | 0 DSS
C[C@@H]1O[C@@H](OC[C@H]2O[C@@H](Oc3c(-c4ccc(O)c(O)c4)oc4cc(O)cc(O)c4c3=O)[C@H](O)[C@@H](O)[C@@H]2O)[C@H](O)[C@H](O)[C@H]1O [Rutin] | 0 DSS | 0 DSS | 0 DSS
Cc1c(C(=O)Nc2ccc(N3C[C@@H](C)O[C@@H](C)C3)nc2)cccc1-c1ccc(OC(F)(F)F)cc1 [Sonidegib] | 0 DSS | 0 DSS | 0 DSS
NC(=O)N1CCC(CC(=O)N2CCC([C@H]3c4ncc(Br)cc4CCc4cc(Cl)cc(Br)c43)CC2)CC1 [Lonafarnib] | 0 DSS | 0 DSS | 0 DSS
CC(C)(CO)[C@@H](O)C(=O)NCCC(=O)O [D-Pantothenic acid (hemicalcium salt)] | 0 DSS | 0 DSS | 0 DSS
O=C(O)c1ccccc1O [Salicylic acid] | 0 DSS | 0 DSS | 0 DSS
COc1cc([C@@H]2c3cc4c(cc3[C@@H](O[C@@H]3O[C@@H]5CO[C@@H](c6cccs6)O[C@H]5[C@H](O)[C@H]3O)[C@H]3COC(=O)[C@H]23)OCO4)cc(OC)c1O [Teniposide] | 1.4 DSS | 0.1 DSS | 0 DSS

Some of these compounds in order of SMILES length, high to low:
SMILES | drug sensitivity score (Kuramochi) | drug sensitivity score (OVCAR3) | drug sensitivity score (OVCAR4)
CCc1c2c(nc3ccc(OC(=O)N4CCC(N5CCCCC5)CC4)cc13)-c1cc3c(c(=O)n1C2)COC(=O)[C@]3(O)CC [Irinotecan (hydrochloride trihydrate)] | 0 DSS | 0 DSS | 0 DSS
CC(C)(C)c1nc(-c2cccc(NS(=O)(=O)c3c(F)cccc3F)c2F)c(-c2ccnc(N)n2)s1 [Dabrafenib (Mesylate)] | 0 DSS | 0 DSS | 0 DSS
CC(=O)CCCCn1c(=O)c2c(ncn2C)n(C)c1=O [Pentoxifylline] | 0 DSS | 0 DSS | 0 DSS

Source: the supplement of paper PMC12593923
